Among the data in PMC4140647 are binding values, retold here.

These are yes or no findings as the source states them, for the method shown. In cells and extracts the contact can be indirect. Here binding means that the protein was enriched with, or labelled near, the bait; the list need not be complete. Sequences can lack the tags named with a protein.

To fix the notation:
T1: AtMTR4-GFP (Arabidopsis thaliana) (UniProt Q9XIF2)
T1 sequence: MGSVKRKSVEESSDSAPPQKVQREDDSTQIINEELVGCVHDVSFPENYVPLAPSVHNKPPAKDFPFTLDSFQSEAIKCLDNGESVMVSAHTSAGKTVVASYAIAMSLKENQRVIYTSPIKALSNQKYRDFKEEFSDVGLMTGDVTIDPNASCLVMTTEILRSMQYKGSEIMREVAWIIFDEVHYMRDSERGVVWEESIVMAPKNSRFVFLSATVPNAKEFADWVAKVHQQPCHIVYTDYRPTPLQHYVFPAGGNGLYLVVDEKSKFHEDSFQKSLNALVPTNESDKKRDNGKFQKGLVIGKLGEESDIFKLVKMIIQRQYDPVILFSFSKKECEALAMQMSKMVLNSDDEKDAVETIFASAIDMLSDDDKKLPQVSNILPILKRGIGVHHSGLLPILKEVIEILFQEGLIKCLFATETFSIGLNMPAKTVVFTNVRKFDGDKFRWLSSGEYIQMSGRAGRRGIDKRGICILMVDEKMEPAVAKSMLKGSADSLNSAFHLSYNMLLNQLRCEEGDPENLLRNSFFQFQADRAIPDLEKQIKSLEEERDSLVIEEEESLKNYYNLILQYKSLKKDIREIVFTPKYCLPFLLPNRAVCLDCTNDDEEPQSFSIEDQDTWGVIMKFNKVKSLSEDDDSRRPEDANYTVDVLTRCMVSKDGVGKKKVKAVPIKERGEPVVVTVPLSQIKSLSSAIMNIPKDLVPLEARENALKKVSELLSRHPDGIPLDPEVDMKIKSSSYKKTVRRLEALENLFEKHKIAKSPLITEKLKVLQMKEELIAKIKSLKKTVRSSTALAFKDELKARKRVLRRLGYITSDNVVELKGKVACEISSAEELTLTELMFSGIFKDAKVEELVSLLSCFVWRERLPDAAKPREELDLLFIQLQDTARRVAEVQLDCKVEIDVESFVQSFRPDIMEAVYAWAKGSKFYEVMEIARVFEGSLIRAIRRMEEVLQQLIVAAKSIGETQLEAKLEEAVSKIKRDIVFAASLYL

T2: HEN2-GFP (Arabidopsis thaliana) (UniProt Q9ZVW2)
T2 sequence: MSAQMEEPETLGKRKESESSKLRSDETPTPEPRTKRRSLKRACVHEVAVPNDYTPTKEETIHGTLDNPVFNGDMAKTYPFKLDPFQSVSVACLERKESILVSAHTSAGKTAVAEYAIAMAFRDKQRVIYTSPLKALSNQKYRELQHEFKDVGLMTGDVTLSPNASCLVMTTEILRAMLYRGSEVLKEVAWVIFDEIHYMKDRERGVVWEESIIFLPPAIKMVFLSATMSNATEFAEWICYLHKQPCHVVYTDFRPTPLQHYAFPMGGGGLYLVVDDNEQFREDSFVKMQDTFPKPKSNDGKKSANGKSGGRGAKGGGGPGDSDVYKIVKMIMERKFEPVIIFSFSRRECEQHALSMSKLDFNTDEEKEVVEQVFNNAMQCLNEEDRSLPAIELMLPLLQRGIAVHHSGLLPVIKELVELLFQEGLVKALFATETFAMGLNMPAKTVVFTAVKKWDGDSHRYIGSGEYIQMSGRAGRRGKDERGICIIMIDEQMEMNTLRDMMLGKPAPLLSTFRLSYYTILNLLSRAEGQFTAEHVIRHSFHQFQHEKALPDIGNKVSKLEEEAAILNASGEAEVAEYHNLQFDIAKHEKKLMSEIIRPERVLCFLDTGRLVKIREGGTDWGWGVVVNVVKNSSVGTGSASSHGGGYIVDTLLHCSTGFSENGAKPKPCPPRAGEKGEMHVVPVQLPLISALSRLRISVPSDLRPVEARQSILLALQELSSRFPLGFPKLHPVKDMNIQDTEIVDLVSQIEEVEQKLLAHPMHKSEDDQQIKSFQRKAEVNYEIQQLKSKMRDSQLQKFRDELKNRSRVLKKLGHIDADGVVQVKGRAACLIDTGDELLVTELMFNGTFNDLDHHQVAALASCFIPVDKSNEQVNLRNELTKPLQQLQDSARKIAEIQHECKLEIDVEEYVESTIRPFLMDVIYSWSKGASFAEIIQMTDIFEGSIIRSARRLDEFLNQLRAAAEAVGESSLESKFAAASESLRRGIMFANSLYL

B1: SLOW WALKER1 (protein, UniProt O82266 1-530)
chain: MEEELRVRLNDHQVSKVFPVKPKSTAKPVSESETPESRYWSSFKNHSTPNLVSSVAALAFSPVHPHSLAVAHSATVSLFSSQSLSSSRRFSFRDVVSSVCFRSDGALFAACDLSGVVQVFDIKERMALRTLRSHSAPARFVKYPVQDKLHLVSGGDDGVVKYWDVAGATVISDLLGHKDYVRCGDCSPVNDSMLVTGSYDHTVKVWDARVHTSNWIAEINHGLPVEDVVYLPSGGLIATAGGNSVKVWDLIGGGKMVCSMESHNKTVTSLRVARMESAESRLVSVALDGYMKVFDYGRAKVTYSMRFPAPLMSLGLSPDGSTRVIGGSNGMVFAGKKKVRDVVGGQKKSLNLWSLISDVDESRRRALRPTYFRYFQRGQSEKPSKDDYLVKEKKGLKLTRHDKLLKKFRHKEALVSVLEEKKPANVVAVMEELVARRKLMKCVSNMEEGELGMLLGFLQRYCTVQRYSGLLMGLTKKVLETRAEDIKGKNEFKGLLRNLKREVNQEIRIQQSLLEIQGVIAPLMRIAGRS
B2: NUCLEOLAR COMPLEX ASSOCIATED 4 (protein, UniProt F4IMH3 1-577)
chain: MASILSKKQKKNEKYTLKELKSLGHDLLTSRSHINNLPLLLTFVSPESPPQFVVESLLSLQSFFTPLLSQLPPTSSSPSSTKTEDPEVVFKAWLRSKFDEFVKLLLDVLVSQQSEDSLRGIVLGTLMEFVKLLNAGRFHSSIYHRLLDAIIHSEVDIEIFLDILTSKYFKYIDVRYFTYISMEKFVKTLEASVSADRTVIENNEAESDSKESLELSVRKIYQVLSQIPPPEKQAEKSQHEMWSGSDESISEKPTDKKKKTEKGDSTLLSPATISKRMKLKFTKAWISFLRLPLPIDVYKEVLASIHLTVIPHLSNPTMLCDFLTKSYDIGGVVSVMALSSLFILMTQHGLEYPFFYEKLYALLVPSVFVAKHRAKFLQLLDACLKSSMLPAYLAASFTKKLSRLSLSIPPAGSLVITALIYNLLRRNPTINHLVQEIVENADEANTEAGEHNESQPKTIKKRKLGIDYFNNQESDPKKSGALKSSLWEIDTLRHHYCPPVSRFISSLETNLTIRSKTTEMKIEDFCSGSYATIFGDEIRRRVKQVPLAFYKTVPTSLFADSDFPGWTFTIPQEEGTC
B3: unknown protein, DUF1726 (AT1G10490) (protein, UniProt Q9XIK4 1-1028)
chain: MRKKVDERIRTLIENGVKLRHRSMFVIIGDKARDQIVNLHHILSKSVVKSNPSVLWCYKNRLDISSHNKKRAKQLKKMKERGQLDPEKLDAFSLFLDVVDVTHCLYKDSERILGNTFGICILQDFEALTPNLLARTIETVEGGGLVVLLLQSLASLTSLCTMVMDVHDRFRTESHSEASGRFNERFLLSLASCKACVVMDDELNLLPLSSHIKSITKVPTKEDSEALSEAERDLKSLKDALNDDFPVGPLINKCCTLDQGKAVVTFFDAILDKTLRSIVALIASRGRGKSAALGLAVAGAVAAGYSNIYVTAPSPDNLKTVFEFVCKGFDALEYKEHLEYDVVRSVNPEFNKAIVRINIFKQHRQTIQYIQPHEHEKLSQVELLVIDEAAAIPLPVVKSLLGPYLVFLSSTVSGYEGTGRSLSLKLLQQLEEQSRAPVTGVEGSLSGCLFKKIELSESIRYASGDPIESWLNGLLCLDVANCLPNPACHPLPSQCDLYYVNRDTLFSYHKDSELFLQRMMALCVSSHYKNSPNDLQLLSDAPAHHLFVLLGPVDESKNQLPDILCVIQVCLEGQISRKSAEKSLREGHSPHGDQIPWKFCEQFRDVVFPKLSGARIVRIAVHPNAMKMGYGSAAVELLTRYFEGQLASISEGDDELEVEPSPVRVTEAAAKVSLLEEQIKPRANLPPLLVPLRDRRPERLHYIGVSFGLTLDLFRFWRKHKFAPFYISQIPSAVTGEHTCMLLKPLTLSNDEFEVDESDELGFFAPFYKDFRIRFSKLLSDKFKKMDYKLAMSVLNPKINFPEVDLTGNSPDGFLKKLDGVLSPYDMERFRAYTANLVDFNLVYDICKTLAHHYFQEKLPVSLSYVQASVLLCLGLQESDFSSIERQMQLERGQIYSLLLKVGKKLYKYLNGIATKELESTLPRLKDRVLEPHKVSVDEDLREGAKEVEEQMRARIEELLDPELLDQFAIGDKEAEALQKSKISSSGLISIESTKTDNKKEKPSGFDKSAKKRGNDKHSSTSNKKRRA
B4: … NUCLEAR PROTEIN 1 (protein, UniProt Q8RWS4 1-444)
chain: MAKKRDRIVNTQPFISDDASVASSRKRSKVPKTHQKQEKLIEAGMSEKIMKQALAQQKEVADEENAERNPSSAAFAVAGAATAGEEQKILEEEEDDIDDFDGTFENQSQFDKQEEINEDDEKLFESFLNKNAPPQRTLTDIIIKKLKDKDADLAEEERPDPKMDPAITKLYKGVGKFMSEYTVGKLPKAFKLVTSMEHWEDVLYLTEPEKWSPNALYQATRIFASNLKDRQVQRFYNYVLLPRVREDIRKHKKLHFALYQALKKSLYKPSAFNQGILFPLCKSGTCNLREAVIIGSILEKCSIPMLHSCVALNRLAEMDYCGTTSYFIKVLLEKKYCMPYRVLDALVAHFMRFVDDIRVMPVIWHQSLLTFVQRYKYEILKEDKEHLQTLLQRQKHHLVTPEILRELKDSRNRGEKEDPMVDNFAPVPAKEDRFDIPEVPMEED
B5: FK506 BINDING PROTEIN 53 (protein, UniProt Q93ZG9 1-477)
chain: MGFWGLEVKPGKPQAYNPKNEQGKIHVTQATLGTGLSKEKSVIQCSIGDKAPIALCSLLPNKIECCPLNLEFDDDDEPVEFTVTGDRSIHLSGFLEYYQDDEDDYEHDEDDSDGIDVGESEEDDSCEYDSEEDEQLDEFEDFLDSNLERYRNAAAPKSGVIIEEIEDEEKPAKDNKAKQTKKKSQASEGENAKKQIVAIEGAHVPVLESEDEDEDGLPIPKGKSSEVENASGEKMVVDNDEQGSNKKRKAKAAEQDDGQESANKSKKKKNQKEKKKGENVLNEEAGQVQTGNVLKKQDISQISSNTKAQDGTANNAMSESSKTPDKSAEKKTKNKKKKKPSDEAAEISGTVEKQTPADSKSSQVRTYPNGLIVEELSMGKPNGKRADPGKTVSVRYIGKLQKNGKIFDSNIGKSPFKFRLGIGSVIKGWDVGVNGMRVGDKRKLTIPPSMGYGVKGAGGQIPPNSWLTFDVELINVQ
B6: CBP80 (protein, UniProt Q9SIU2 1-848)
chain: MSNWKTLLLRIGEKGPEYGTSSDYKDHIETCFGVIRREIERSGDQVLPFLLQCAEQLPHKIPLYGTLIGLLNLENEDFVQKLVESVHANFQVALDSGNCNSIRILLRFMTSLLCSKVIQPASLIVVFETLLSSAATTVDEEKGNPSWQPQADFYVICILSSLPWGGSELAEQVPDEIERVLVGIQAYLSIRKNSSTSGLNFFHNGEFESSLAEKDFVEDLLDRIQSLASNGWKLESVPRPHLSFEAQLVAGKFHELRPIKCMEQPSPPSDHSRAYSGKQKHDALTRYPQRIRRLNIFPANKMEDVQPIDRFVVEEYLLDVLFYLNGCRKECASYMANLPVTFRYEYLMAETLFSQILLLPQPPFKTLYYTLVIMDLCKALPGAFPAVVAGAVRALFEKISDLDMESRTRLILWFSHHLSNFQFIWPWEEWAFVLDLPKWAPKRVFVQEILQREVRLSYWDKIKQSIENATALEELLPPKAGPNFMYSLEEGKEKTEEQQLSAELSRKVKEKQTARDMIVWIEETIYPVHGFEVTLTIVVQTLLDIGSKSFTHLVTVLERYGQVFSKLCPDNDKQVMLLSQVSTYWKNNVQMTAVAIDRMMGYRLVSNQAIVRWVFSPENVDQFHVSDQPWEILGNALNKTYNRISDLRKDISNITKNVLVAEKASANARVELEAAESKLSLVEGEPVLGENPAKMKRLKSTVEKTGEAELSLRESLEAKEALLNRALSETEVLLLLLFQSFLGVLKERLPDPTKVRSVQDLKSIGAEDDKPSAMDVDSENGNPKKSCEVGEREQWCLSTLGYLTAFTRQYASEIWPHMEKLESEVFSGEDVHPLFLQAISSALQFPLH

One assay concerns the target T1, AtMTR4-GFP (Arabidopsis thaliana). Put plainly: affinity purification with mass spectrometry; AtMTR4-GFP (own promoter, mtr4 background) extracted from flowers, held on anti-GFP magnetic microparticles (MACS), SDS omitted from washing buffers; LC-MS/MS; triplicates crossed, proteins of mock IPs excluded.
As for B1, the binding entry was “binds”.
With B2, the binding result was “binds”.
Turning to B3, the binding result is recorded as “binds”.
For B4, the binding entry is recorded as “binds”.
As to B5, the binding entry is listed as “binds”.

In another assay the target is T2, HEN2-GFP (Arabidopsis thaliana). Put plainly: affinity purification with mass spectrometry; HEN2-GFP (hen2 background) extracted from flowers, held on anti-GFP magnetic microparticles (MACS), 50 mM NaCl; LC-MS/MS; duplicates crossed, proteins of mock IPs excluded.
Take B6: the binding entry was “binds”.
